The text below walks through data of US12054483B2, “Small molecule inhibitors of DYRK/CLK and uses thereof” (Arizona Board of Regents on Behalf of the University of …, priority 2018, dated 2024).

The structures appear in SMILES notation. The structures given here were assigned with low confidence; some may be wrong.

The experiment concerns the target DYRK1A (Homo sapiens, UniProt Q13627). The experiment can be described thus: Affinity testing of compounds with DYRK1A (KD). As to conditions: read-out: KD (DYRK1A); DYRK1A affinity key classes. The format is binding.

`Cc1nc2ccc(-c3ccnc(N)c3)nc2n1-c1ccc2c(c1)CCN2`: the Kd lay within 0.5 to 100 nM.
